# Measured values reported in PubChem BioAssay AID504444 (National Center for Advancing Translational Sciences (NCATS), 2011).
# Screen size: about 360,000 compounds; about 7,500 (2.1%) were called active. Inconclusive results, whose numbers are uncertain, are shown with a selection of clear calls. The call rests on the fitted dose curve; in most records, active means well fitted inhibition curve with a large enough effect; inconclusive means small, poorly fitted or top-dose-only effect, or effect the other way; inactive means flat fitted curve, though single readings scatter. Where the call is inconclusive, the potency comes from a doubtful curve fit.
# Test: Nrf2 qHTS screen for inhibitors; further: nearly all actives have a fitted effect of over 60% in size
# Conditions: A549 ARE-Fluc reporter, luciferase luminescence, 18-24 h; activity change, negative = inhibition: at 46 µM (top of the series)
# Procedure, shortened: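 Nrf2 activity is the BugLite luminescence, read 15 min after reagent at room temperature, following CellTiter-Fluor cytotoxicity readout (30 min, 37C). Compound titrations were applied for 18-24 h to 5000 A549 ARE_Fluc cells/well in 5% FBS OPTI-MEM.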
# On the % scale 0 is the no-effect control and ±100 the full control effect; potency means the concentration at half of the fitted maximal effect.
SMILES,Potency,"activity change, negative = inhibition"
CCN(c1ccccc1)S(=O)(=O)c1ccc(-c2cc(C)no2)s1,"inconclusive: 29.1 µM [activator, single point]",
CCCCC(CC)C(=O)Nc1ccc(C#N)cc1 (stereo unspecified),"inconclusive: 7.31 µM [falling, partial curve, poor fit]",
COCCn1c(C)cc(C(=O)COc2nc3ccccc3nc2C)c1C,"inconclusive: 6.51 µM [falling, full curve, poor fit]",
O=C(O)c1cccc2c1C(=O)c1ccccc1-2,,inactive: 1.06%
CC(=O)c1ccc(NS(=O)(=O)c2ccc(-c3cnc(C4CC4)o3)cc2)cc1,"inconclusive: 18.4 µM [falling, partial curve, poor fit]",
O=C(Nc1nnc(C2CC2)o1)c1ccc(S(=O)(=O)N2CCCCC2)cc1,"inconclusive: 29.1 µM [falling, single point]",
Cc1ccc(CNC(=O)c2cnn(-c3cccc(C)c3)c2C2CCN(C(=O)OC(C)(C)C)CC2)cc1,active: 18.4 µM,
C(#CC1CCCC1)c1ccc2c(c1)COc1c3ccccc3nn1-2,"inconclusive: 1.84 µM [activator, full curve]",
Cc1cc(Br)cc2c(C(=O)NCC3CCCO3)cc(-c3ccccc3)nc12 (stereo unspecified),"inconclusive: 2.59 µM [activator, single point]",
N#Cc1c(N2CCN(C(=O)c3ccccc3Cl)CC2)nc(-c2ccccc2)c2c1CCCC2,"inconclusive: 29.1 µM [falling, single point]",
Cc1ccc(Cn2nnnc2CN2CCC(O)(c3ccc(F)cc3)CC2)cc1,"inconclusive: 10.3 µM [falling, partial curve, poor fit]",
COc1cccc(NC(=O)c2nn(C)cc2Br)c1,"inconclusive: 0.146 µM [activator, full curve, poor fit]",
Cc1nc(Sc2ccc(Cl)cc2)c(C#N)c(C)c1[N+](=O)[O-],"inconclusive: 29.1 µM [falling, partial curve, poor fit]",
Cc1ccc(-c2cn3c(=S)[nH]nc3s2)cc1,,inactive: 10.5%
O=C(CCNS(=O)(=O)c1ccc(Br)cc1)NNC(=O)C1COc2ccccc2O1 (stereo unspecified),"inconclusive: 29.1 µM [falling, partial curve, poor fit]",
CCCCCCCCC(=O)N/N=C/c1cccc(Br)c1,active: 20.6 µM,
CC1CN(C(=O)c2ccc([N+](=O)[O-])s2)CC(C)O1 (stereo unspecified),"inconclusive: 9.2 µM [falling, partial curve, poor fit]",
CNC(=S)NNC(=O)c1noc(C)c1C(=O)N1CCN(C(c2ccccc2)c2ccccc2)CC1,"inconclusive: 0.0291 µM [activator, full curve, poor fit]",
O=C(c1ccc(Cl)c(S(=O)(=O)N2CCCC2)c1)N1CCN(c2ccccc2)CC1,active: 14.6 µM,
COc1ccc(-c2nc3cccc(OC)c3c(=O)n2Cc2ccccc2)cc1COc1ccc(NC(C)=O)cc1,,inactive: -15.1%
Clc1ccc(Cn2ncc3c(NCc4cccnc4)ncnc32)cc1,"inconclusive: 20.6 µM [falling, single point]",

# Nothing new here: entries from further up.
SMILES,Potency,"activity change, negative = inhibition"
O=C(c1ccc(Cl)c(S(=O)(=O)N2CCCC2)c1)N1CCN(c2ccccc2)CC1,active: 14.6 µM,
COc1ccc(-c2nc3cccc(OC)c3c(=O)n2Cc2ccccc2)cc1COc1ccc(NC(C)=O)cc1,,inactive: -15.1%

# Going on with the list:

SMILES,Potency,"activity change, negative = inhibition"
COc1cc(NC(=O)Cn2c(=O)n(CC3CCCO3)c(=O)c3ccccc32)cc(OC)c1 (stereo unspecified),"inconclusive: 2.91 µM [falling, partial curve, poor fit]",
CCOc1ccc(CCNc2nc3ccccc3n3c(C)nnc23)cc1OCC,"inconclusive: 6.51 µM [falling, single point]",
CCOC(=O)NN1C(=O)c2ccccc2NC1c1ccc(N(C)C)cc1 (stereo unspecified),,inactive: -4.99%
CC(=O)c1ccc(N=Nc2c(C)[nH]n(-c3ccccc3)c2=O)cc1,"inconclusive: 20.6 µM [falling, partial curve, poor fit]",
O=C(CSc1nnc(-c2ccccc2)o1)Nc1ccccc1F,"inconclusive: 0.411 µM [activator, partial curve, poor fit]",
Cc1cc(C)nc(/N=C(\N)Nc2ccc(C(C)C)cc2)n1,"inconclusive: 29.1 µM [falling, single point]",
Cc1ccc(S(=O)(=O)C2C(=O)N(C)C3(C)CC2c2ccccc2O3)cc1C (stereo unspecified),,inactive: 0.34%
CC(C)COc1ccc(-c2nn(-c3ccccc3)cc2C(=O)Nc2nccs2)cc1,"inconclusive: 18.4 µM [falling, single point]",
C=CCn1c(/N=C/c2ccc3c(c2)OCO3)nc2ccccc21,"inconclusive: 4.11 µM [falling, partial curve, poor fit]",
Cc1ccc(CN2CC(C(=O)Nc3ccc(S(=O)(=O)Nc4cc(C)nc(C)n4)cc3)CC2=O)cc1 (stereo unspecified),"inconclusive: 29.1 µM [activator, single point]",
COC(=O)c1ccccc1NC(=O)c1ccc2c(c1)CC(C)O2 (stereo unspecified),"inconclusive: 16.4 µM [activator, partial curve]",
Cc1cc2c(c(=O)n1CCN(C)C)C(c1ccncc1)C(C#N)=C(N)O2 (stereo unspecified),,inactive: 2.69%
CCOC(=O)Nc1ccc2nc(N3CCCCCC3)sc2c1,"inconclusive: 3.26 µM [activator, full curve, poor fit]",
O=C(c1ccco1)N1CCN(c2cc(N3CCOCC3)c(F)cc2[N+](=O)[O-])CC1,"inconclusive: 14.6 µM [falling, partial curve, poor fit]",
CC1CCC(C(O)(C(=O)O)C2CCCCC2)CC1C (stereo unspecified),"inconclusive: 5.8 µM [falling, partial curve, poor fit]",
CCCNC(=O)c1ccccc1NC(=O)c1ccc2c(c1)NC(=O)C(C)S2 (stereo unspecified),"inconclusive: 23.1 µM [falling, partial curve, poor fit]",
O=C(COc1ccc2c(c1)OCO2)Nc1nncs1,"inconclusive: 13 µM [activator, partial curve]",
CSc1ccccc1OCc1cc(C(=O)N[C@H]2CCCCNC2=O)no1,"inconclusive: 3.66 µM [activator, full curve]",
Cc1ccc(Cn2cc(C(=O)c3ccc4c(c3)OCO4)c(=O)c3cc(C)ccc32)cc1,"inconclusive: 18.4 µM [falling, single point]",
C=CCC(c1ccccc1)N(C(C)=O)c1ccco1 (stereo unspecified),"inconclusive: 23.1 µM [falling, single point]",
